ChEMBL document CHEMBL3627690, “Scaffold-Hopping and Structure-Based Discovery of Potent, Selective, And Brain Penetrant N-(1H-Pyrazol-3-yl)pyridin-2-amine Inhibitors of Dual Leucine Zipper Kinase (DLK, MAP3K12)” (J Med Chem, 2015)

Assays:
human MDR1 [1] = experiment: Permeability across apical to basolateral side in MDCK cells transfected with human MDR1 at 5 uM by LC-MS/MS analysis; conditions: dog
human MDR1 [2] = experiment: Efflux ratio of permeability across basolateral to apical over apical to basolateral side in MDCK cells transfected with human MDR1 at 5 uM by LC-MS/MS analysis; conditions: dog

N#Cc1ccnc(Nc2nc(C3CC3)c(C3CCN(C4COC4)CC3)s2)c1
Papp A→B at 5 µM (human MDR1 [1]): 15.4 ×10⁻⁶ cm/s
efflux ratio at 5 µM (human MDR1 [2]): 0.94
